The source of these data is the supplement of paper PMC12889115.

The structures appear in SMILES notation. The list shows a part of the results. Values are raw readings; no control value is given beside them.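 First-pass screen: polymyxin B was added at a level that permeabilizes the Salmonella outer membrane while sparing the inner membrane. DMSO wells, with and without polymyxin B, defined maximum growth. Because plates differed from one another, each plate's data were ranked separately and the compounds with the lowest OD600 were carried forward as hits.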

For the assay, the system named is Salmonella enterica serovar Typhimurium SL1344. Description: bacterial growth OD600 after 18 h with compound and polymyxin B; higher = more bacterial growth (less inhibition). The settings on record: 50 µM, Mueller-Hinton broth.

With `c1ccc(-c2ncc3c(n2)CCCC3NC2CCCC2)cc1` (stereo not drawn), under “polymyxin B 1 µg/mL”, the “bacterial growth OD600” value is 0.864.

For the compound `COCCNC(=O)CCC1CCN(Cc2cccc3cccnc23)CC1`, for the setting “polymyxin B 1 µg/mL”, the “bacterial growth OD600” value came to 0.89.

`COCCNC1CCN(c2ccc(NC(=O)CCCCc3ccccc3)cc2)CC1`: the “bacterial growth OD600” value (polymyxin B 0.75 µg/mL) was 0.822.

In the case of `COc1cccc(OCc2nc(C(=O)NCc3ccc(F)c(F)c3)co2)c1`, the “bacterial growth OD600” value (polymyxin B 1 µg/mL) turned out to be 0.701.

`Cc1cnc(CNC(=O)c2cc(Cn3c(C)nc4ccccc43)[nH]n2)cn1`: the “bacterial growth OD600” value (polymyxin B 1 µg/mL) came to 1.27.

Regarding `CN(C)C(=O)CC(c1ccccc1)c1ccccc1Cl` (stereo not drawn), the “bacterial growth OD600” value (polymyxin B 1 µg/mL) amounted to 0.531.

As to `c1cc(CNC2COc3ccccc3C2)cc(-c2ccco2)c1` (stereo not drawn), the “bacterial growth OD600” value (polymyxin B 1 µg/mL) was found to be 0.822.

For the compound `CCOC(=O)C1(Cc2ccc(F)cc2)CCCN(C(=O)CCn2nccc2C)C1` (stereo not drawn), the “bacterial growth OD600” value (polymyxin B 1 µg/mL) amounted to 0.816.

With `Cc1cccc(NC(=O)CCC2CCN(C(=O)CCN3CCCCC3=O)CC2)c1`, the “bacterial growth OD600” value (polymyxin B 1 µg/mL) is 0.97.

Consider `CC1CN(C(=O)c2ccc(OC3CCN(CC(C)(C)C)CC3)c(Cl)c2)CCN1C` (stereo not drawn), for which the “bacterial growth OD600” value (polymyxin B 1 µg/mL) stood at 0.922.

On to `NC(=O)C1CCN(Cc2cn(Cc3ccccc3)nc2-c2ccc3c(c2)OCO3)CC1`, for which the “bacterial growth OD600” value (polymyxin B 1 µg/mL) was 1.03.

Turning to `CCN(CCn1cccn1)Cc1nc(-c2ccc(C(F)(F)F)cc2)oc1C`, the “bacterial growth OD600” value (polymyxin B 1 µg/mL) was found to be 0.733.

As to `Cc1c[nH]c(CN2CCC(c3ccc(F)c(F)c3)Sc3ccccc32)n1` (stereo not drawn), for the setting “polymyxin B 0.75 µg/mL”, the “bacterial growth OD600” value was 0.672.

Consider `O=S(=O)(c1ccc(Cl)s1)N1CCC(n2c(CCc3ccccc3)nc3cccnc32)CC1`, for which, under “polymyxin B 0.75 µg/mL”, the “bacterial growth OD600” value was 0.676.

`COc1ccc(CN2CCCC(CO)(Cc3cccc(OC)c3)C2)cc1` (stereo not drawn): for the setting “polymyxin B 1 µg/mL”, the “bacterial growth OD600” value was found to be 0.985.

`FC(F)(F)c1cccc(Cc2noc(CN3CCCC(OCc4cccnc4)C3)n2)c1` (stereo not drawn): the “bacterial growth OD600” value (polymyxin B 1 µg/mL) stood at 0.75.

Regarding `Cc1c(C(C)NC(=O)c2ccccc2-c2ncc[nH]2)cnn1-c1ccccn1` (stereo not drawn), where the note is “polymyxin B 1 µg/mL”, the “bacterial growth OD600” value came to 1.23.

`O=C1CC(CC(=O)N2CCCC2c2nccs2)(c2cccc(F)c2)C(=O)N1Cc1cccnc1` (stereo not drawn): under “polymyxin B 0.75 µg/mL”, the “bacterial growth OD600” value is 0.958.

Regarding `O=C(CC1CC1)N1CCCC(CCc2c(F)cccc2F)C1` (stereo not drawn), the “bacterial growth OD600” value (polymyxin B 0.75 µg/mL) amounted to 0.48.

Turning to `COCc1c(C(=O)NCc2cccnc2)cnn1-c1ncc2c(n1)-c1ccccc1CCC2`, the “bacterial growth OD600” value (polymyxin B 0.75 µg/mL) amounted to 0.745.

As to `CN(Cc1ccccc1)c1ncccc1CNC(=O)CN1CC(=O)NC1=O`, the “bacterial growth OD600” value (polymyxin B 1 µg/mL) was 0.886.

Consider `COc1cccc(CN2CCN(C3CCCC3)C(CCO)C2)c1` (stereo not drawn), for which the “bacterial growth OD600” value (polymyxin B 1 µg/mL) was found to be 0.85.

Turning to `O=C(CSc1ccccc1)N1CCCC(N2CCN(c3cccc(Cl)c3)CC2)C1` (stereo not drawn), the “bacterial growth OD600” value (polymyxin B 1 µg/mL) was found to be 0.688.

On to `O=C(CN1Cc2ccccc2OC(c2ccccc2F)C1)NCC(c1ccncc1)N1CCOCC1` (stereo not drawn), for which the “bacterial growth OD600” value (polymyxin B 0.75 µg/mL) amounted to 0.646.

Take `COc1cccc(-c2cnnc(NC(C)CCn3cccn3)n2)c1` (stereo not drawn): the “bacterial growth OD600” value (polymyxin B 0.75 µg/mL) worked out at 0.659.

`CCC1CN(CCNC(=O)Cc2cccc(C)c2)Cc2cc(OC)ccc2O1` (stereo not drawn): the “bacterial growth OD600” value (polymyxin B 0.75 µg/mL) stood at 0.758.

As for `COc1ccc(S(=O)(=O)NCC2CCCN(C(=O)CNC(C)=O)C2)cc1` (stereo not drawn), the “bacterial growth OD600” value (polymyxin B 1 µg/mL) came to 0.822.

For the compound `COc1cc(C(=O)N(Cc2cnn(C)c2)C(C)C)ccc1OC1CCN(C(C)=O)CC1`, the “bacterial growth OD600” value (polymyxin B 1 µg/mL) stood at 0.859.

In the case of `COc1ccc(C(CC(=O)N(C)Cc2ccon2)c2ccccc2)cc1` (stereo not drawn), where the note is “polymyxin B 1 µg/mL”, the “bacterial growth OD600” value worked out at 0.664.

Turning to `CC(C)c1cc(C(=O)N2CCCC(Nc3ccc4c(c3)OCCO4)C2)on1` (stereo not drawn), the “bacterial growth OD600” value (polymyxin B 1 µg/mL) was found to be 0.94.

`CSc1ncccc1C(=O)N1CCC(C(Cc2ccccc2)N(C)C(=O)c2ccoc2C)CC1` (stereo not drawn): the “bacterial growth OD600” value (polymyxin B 0.75 µg/mL) was determined as 0.758.

With `O=C(c1cccnc1)N1CCC(Oc2ccccc2C(=O)N2CCc3ccccc3C2)CC1`, under “polymyxin B 1 µg/mL”, the “bacterial growth OD600” value was 1.28.

For the compound `Cc1cc(C(=O)NCC2CCCN(S(=O)(=O)c3ccc(C)s3)C2)no1` (stereo not drawn), the “bacterial growth OD600” value (polymyxin B 0.75 µg/mL) is 0.66.
